No constants are given. Whether binding was seen depends on the method and setting. In cells and extracts the contact can be indirect. These calls come from enrichment with a bait or labelling near it, and not all partners need be listed. Tags and fused reporters may be left off the sequences shown.
Molecular target: T1, human wild-type TREX1 (three-prime repair exonuclease 1), N-terminal 3x-FLAG tag (human) (UniProt Q9NSU2)
T1 sequence: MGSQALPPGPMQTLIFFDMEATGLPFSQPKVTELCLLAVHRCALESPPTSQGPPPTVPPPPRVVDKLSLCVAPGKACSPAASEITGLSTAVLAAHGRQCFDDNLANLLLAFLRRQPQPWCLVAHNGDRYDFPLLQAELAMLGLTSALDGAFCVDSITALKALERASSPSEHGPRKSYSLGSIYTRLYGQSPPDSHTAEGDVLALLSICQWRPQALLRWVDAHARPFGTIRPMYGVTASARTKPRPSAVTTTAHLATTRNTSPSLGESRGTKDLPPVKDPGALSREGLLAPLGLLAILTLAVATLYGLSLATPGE
Experiment: affinity purification with mass spectrometry; 3x-FLAG-TREX1 (WT or V235Gfs) transfected in HEK 293T; lysis in NP-40 buffer (50 mM HEPES pH 7.4, 150 mM NaCl, 1% NP-40); anti-FLAG M2 agarose beads, 4 °C, 4 h; silver-stained bands absent from the vector control excised, ion-trap mass spectrometry; one screen

By UniProt entry, the sequences of proteins in these tests, tags left out.
UniProt P09874: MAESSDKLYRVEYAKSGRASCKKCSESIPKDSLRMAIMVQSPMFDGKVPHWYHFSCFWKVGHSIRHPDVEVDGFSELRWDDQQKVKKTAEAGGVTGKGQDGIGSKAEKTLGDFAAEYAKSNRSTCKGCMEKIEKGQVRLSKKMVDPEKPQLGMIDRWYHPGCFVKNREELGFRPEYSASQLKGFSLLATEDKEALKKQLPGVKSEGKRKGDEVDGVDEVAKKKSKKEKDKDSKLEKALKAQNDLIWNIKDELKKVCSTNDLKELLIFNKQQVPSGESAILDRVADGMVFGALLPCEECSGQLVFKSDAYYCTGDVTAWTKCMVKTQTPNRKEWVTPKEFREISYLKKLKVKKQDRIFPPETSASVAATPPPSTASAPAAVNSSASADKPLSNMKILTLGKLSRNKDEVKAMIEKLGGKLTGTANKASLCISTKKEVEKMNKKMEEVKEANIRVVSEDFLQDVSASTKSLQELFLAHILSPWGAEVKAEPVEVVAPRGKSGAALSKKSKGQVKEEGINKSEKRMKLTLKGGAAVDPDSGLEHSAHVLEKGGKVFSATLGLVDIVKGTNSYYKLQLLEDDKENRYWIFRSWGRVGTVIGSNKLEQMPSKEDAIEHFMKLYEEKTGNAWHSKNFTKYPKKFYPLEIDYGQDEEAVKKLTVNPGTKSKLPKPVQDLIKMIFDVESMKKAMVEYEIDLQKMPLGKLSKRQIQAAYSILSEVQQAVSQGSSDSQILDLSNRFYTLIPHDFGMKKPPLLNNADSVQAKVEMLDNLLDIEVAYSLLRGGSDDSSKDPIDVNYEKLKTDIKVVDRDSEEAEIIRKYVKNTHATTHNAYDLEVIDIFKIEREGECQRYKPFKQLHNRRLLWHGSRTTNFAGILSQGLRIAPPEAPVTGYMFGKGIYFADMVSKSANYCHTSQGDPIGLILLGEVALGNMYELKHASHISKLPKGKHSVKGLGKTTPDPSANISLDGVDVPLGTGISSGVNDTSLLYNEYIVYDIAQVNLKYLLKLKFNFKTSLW

- binding: binds
Substance: PARP1 (from UniProt P09874 1-1014)

Source: paper PMC11144269
